# Results of single-concentration screens

Source: ChEMBL document CHEMBL3988442, “University of Dundee, Small-Polar-MMV Screening Library” (2021).

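Whole-parasite assay of Trypanosoma brucei over 72 hours; the read-out is not stated. Compounds at 30 µM. Direction is inferred from retests: higher values go with stronger inhibition. Values scatter widely below zero; nearly all retest evidence comes from the higher of the two concentrations used. Size under these conditions: about 64,000 compounds, about 940 of them at 50% or above in at least one test.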

Each number is a percent effect as filed.
The record does not define 0% and 100%; most values in the screen are far below 50% and negative numbers occur (in some assays of this library far below -100).
This is an unselected part of the compounds tested.

| Compound | Percent Effect |
|---|---|
| `c1cnnc(N2CCCC2CNCc2ccsc2)c1` (stereo not drawn) | -12.1% |
| `O=C(CCN1CCNCC1)N1CCC2(CC1)c1ccccc1CC2O` (stereo not drawn) | -8.776% |
| `CC(C)n1ccc(CN2CCN(c3cc(NC4CC4)nc(N)n3)CC2)c1` | -9.598% |
| `NC(=O)CSCC(=O)NCC1CCCC1` | -9.935% |
| `Cc1ccc(-c2cc(CNC(=O)N3CCC(CO)CC3)on2)cc1` | -23% |
| `c1ccc2nc(N3CCCC3c3nnc4n3CCCCC4)cnc2c1` (stereo not drawn) | -13% |
| `Cc1nc2ccccn2c1CN(Cc1cccnc1)CC1CCCO1` (stereo not drawn) | 30.35% |
| `Cc1cccc2cc(CNCCCN3CCOCC3)c(=O)[nH]c12` | -10.51% |
| `CC(C)(C)NC(=O)c1cccc(CN2CCS(=O)(=O)CC2)c1` | -24.35% |
| `COc1ccc2c(c1)OC1(CCN(Cc3ccccc3C)CC1)CC2=O` | 99.25% |
| `CCc1nnc(CN2CCC3(CC2)Nc2ccccc2NC3=O)o1` | -26.87% |
| `Cc1ccc(-c2ncc(CNc3cnccc3CO)s2)o1` | -23.23% |
| `Cc1nc(C2CCCN2C(=O)c2csc3c2CCCC3)no1` (stereo not drawn) | -5.541% |
| `CC(c1cccnc1)N(C)S(C)(=O)=O` (stereo not drawn) | -11.35% |
| `Cc1cc(-c2cc(-c3cc(CC(=O)O)cs3)nc(N)c2C#N)oc1C` | -16.61% |
| `CCCc1nc(C(=O)N2CCN(C(=O)c3ccc(OC)cc3)CC2)cs1` | -0.03642% |
| `Cc1n[nH]c(C)c1CCC(=O)NCC1CCOc2ccccc2C1` (stereo not drawn) | 5.661% |
| `CC(=O)Nc1nc(CN2CCCC2Cn2cc(C)cn2)cs1` (stereo not drawn) | -28.32% |
| `O=C(c1ccoc1)N1CCC2(CCCN(c3ncc(F)cn3)C2)C1` (stereo not drawn) | -69.02% |
| `Cc1c(C(=O)NC2(C#N)CCSC2)nnn1-c1ccccc1Cl` (stereo not drawn) | 17.08% |
| `CCn1c(N)nc2cc(C(=O)NCCc3nnc(C)s3)cnc21` | -17.09% |
| `Cc1c(CC(=O)N2CCSCC2)nnn1-c1cccc(Cl)c1` | -56.57% |
| `CCCn1nnnc1CN(C)C(C)c1ccc(C)cc1` (stereo not drawn) | 5.957% |
| `Cc1ccc(C(=O)N(Cc2cccnc2)C[C@@H]2CCC(=O)N2)s1` | -27.08% |
| `CCc1nc(C)sc1CNC1CCN(Cc2ccccc2)C1` (stereo not drawn) | -13.9% |
| `CNc1nc(C)c(C(=O)N2CCCCC2CN2CCCCCC2)s1` (stereo not drawn) | 17.59% |
| `CC(=O)NC1CCCN(C(=O)CCc2cccnc2)C1` (stereo not drawn) | -12.32% |
| `Cc1cc(C(=O)N2CCCC3(CNC(=O)O3)C2)c2c(C)nn(C)c2n1` (stereo not drawn) | -86.77% |
| `CN(C)CCCNC(=O)c1cc(-c2ccc3c(c2)CCO3)n[nH]1` | 9.451% |
| `CC(=O)c1c(F)cccc1NCC(O)c1ccc(F)c(F)c1` (stereo not drawn) | -26.1% |
| `Cc1c(CCC(=O)N2CCOC(c3cnccn3)C2)cnn1C` (stereo not drawn) | -6.673% |
| `O=C(O)C(F)(F)F.O=C(O)C(F)(F)F.O=C1COC2(CCN(Cc3ccncc3)CC2)CN1` | -14.05% |
| `Cc1nc(N2CCC3(CCCN(C(C)C)C3=O)C2)c2sccc2n1` (stereo not drawn) | -22.14% |
| `COCCC1(C(=O)O)CCCN(Cc2cc3c(cc2C)OCO3)C1` (stereo not drawn) | -33.02% |
| `CC(C)Oc1ncc(C(=O)N2CCC(NC(=O)C3CC3)CC2)cc1Cl` | -15.55% |
| `CN(C)Cc1ccnc(C2CCCN2Cc2cc[nH]n2)n1` (stereo not drawn) | -22.73% |
| `Cc1nc(C)n(CC2CN(Cc3noc(C4CC4)n3)CCO2)n1` (stereo not drawn) | -10.55% |
| `CCOCC(=O)NCC(CC)(OC)c1ccccc1` (stereo not drawn) | 6.988% |
| `O=c1ccc2c(n1Cc1cccnc1)CCC(NCc1cccnc1)C2` (stereo not drawn) | -69.24% |
| `CCN(CC)C(=O)CSc1ccc(C(F)(F)F)cn1` | -51.31% |
| `CC(CNC(=O)Nc1cn[nH]c1)N1CCOCC1` (stereo not drawn) | -15.01% |
| `CCOCC(=O)NC(C#N)c1cnn(-c2ccccc2)c1` (stereo not drawn) | -6.568% |
| `Cc1cc(C(=O)N2CC[C@H](N3CCOCC3)[C@H](CCCO)C2)c(C)n1C` | -83.57% |
| `O=C(NCC(F)F)N1CCC(n2ccc(C(F)(F)F)n2)CC1` | -50.83% |
| `CCS(=O)(=O)NCCNc1cc(-n2cccc2)ncn1` | 14.19% |
| `OCC1CCCN1c1cc(NCCc2ccccn2)ncn1` (stereo not drawn) | -2.562% |
| `CCc1ccc(CN(C)Cc2nc(-c3cnccn3)no2)nc1` | 6.902% |
| `CCc1ccccc1CNC(=O)CNCC(F)(F)F` | 23.51% |
| `O=C(NC1CCN(c2ncccn2)CC1)c1cccc(-n2ccnc2)c1` | 7.141% |
| `CN1CCc2c(CNc3ncccn3)n[nH]c2C1.O=C(O)C(F)(F)F` | -57.69% |

Once more, the final 6:

* CCS(=O)(=O)NCCNc1cc(-n2cccc2)ncn1 : 14.19%
* OCC1CCCN1c1cc(NCCc2ccccn2)ncn1 (stereo not drawn) : -2.562%
* CCc1ccc(CN(C)Cc2nc(-c3cnccn3)no2)nc1 : 6.902%
* CCc1ccccc1CNC(=O)CNCC(F)(F)F : 23.51%
* O=C(NC1CCN(c2ncccn2)CC1)c1cccc(-n2ccnc2)c1 : 7.141%
* CN1CCc2c(CNc3ncccn3)n[nH]c2C1.O=C(O)C(F)(F)F : -57.69%